These results are taken from paper PMC6258903 (Nature, 2014).

The structures appear in SMILES notation.

The test system of the assay is 95 different cancer cell lines. Briefly: Proliferation assay on a panel of cancer cell lines. Conditions: read-out: IC50 proliferation, non-specific kinase inhibitors. Type of assay: cell-based.

With `CN[C@@H]1C[C@H]2O[C@@](C)([C@@H]1OC)n1c3ccccc3c3c4c(c5c6ccccc6n2c5c31)C(=O)NC4` [staurosporine], the IC50 is below 100 nM.
